Results are given in words; binding and its absence hold for the method and conditions named. Some binding calls cover weakened binding; strength is not graded here. Where a sequence is shown, tags or fusion partners need not be part of it.
T1: GST-tagged SPRY domain of human SPSB2 (human) (UniProt Q99619)
T1 sequence: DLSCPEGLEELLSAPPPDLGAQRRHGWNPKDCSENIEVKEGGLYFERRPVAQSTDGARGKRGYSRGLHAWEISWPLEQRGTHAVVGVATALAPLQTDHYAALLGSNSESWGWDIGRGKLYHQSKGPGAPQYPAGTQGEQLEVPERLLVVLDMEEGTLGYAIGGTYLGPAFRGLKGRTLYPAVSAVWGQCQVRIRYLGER

B1: cR9, cyclo(…) (peptide)
peptide: RGDINNNVE
modifications: head-to-tail amide-cyclized
B2: cR7, cyclo(RGDINNN) (peptide)
peptide: RGDINNN
modifications: head-to-tail amide-cyclized

Target: T1, GST-tagged SPRY domain of human SPSB2 (human)
Assay: pull-down; competition: 1 μM or 10 μM cyclic peptide added to the RAW 264.7 lysate with 2 μg/mL GST-tagged SPRY domain for 2 h; iNOS recovered on glutathione sepharose 4B read by Western blot; both purified

| Binder | binding |
| --- | --- |
| B1 | binds |
| B2 | binds |

— paper PMC11203437, “Subtle Structural Differences Affect the Inhibitory Potency of RGD-Containing Cyclic Peptide Inhibitors Targeting SPSB Proteins” (International Journal of Molecular Sciences, 2024)
